# Measured values reported in patent US12226383B1, “Compositions containing short-chain fatty acid, methods of use, and methods of making thereof” (Velocity Life Sciences, LLC, priority 2024, dated 2025).
# Columns and labels:
# [1] = Organoleptic study: smell assessment on 200 mm visual analog scale; design: species or system human; conditions: N=10 subjects; 200 mg sample; 200 mm VAS
# [2] = Organoleptic study: taste assessment on 200 mm visual analog scale; design: species or system human; conditions: N=10 subjects; 200 mg sample; 200 mm VAS
substance,measurement,setting,value
L-lysine butyrate,"Smell rating, Max",[1],115
same,"Smell rating, Mean",[1],105.10
same,"Smell rating, Median",[1],102.5
same,"Smell rating, Min",[1],98
same,"Taste rating, Max",[2],108
same,"Taste rating, Mean",[2],101.50
same,"Taste rating, Median",[2],101.00
same,"Taste rating, Min",[2],93
